Values from PubChem BioAssay AID1259308 (NCATS, 2017)
Screen: 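Knock-downs that increase output of a recombinant reporter protein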 (primary screen). Cells: human HEK293 embryonic kidney cells stably expressing firefly luciferase (HEK-CMV-Luc2-Hygro). Knock-down reagent: single siRNA against human genes, 0.8 pmol siRNA per well. Duration: 72 h. Detection: 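Luciferase light (ONE-Glo) measured on one replicate plate set and viability (CellTiter-Glo) on the other, scaled to a negative control siRNA, with robust z-scores and luciferase per cell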. Reading the numbers: total luciferase, z-score and total luciferase, % of control: higher = more reporter protein produced; luciferase per cell, z-score: higher = more reporter output per viable cell; viable cells, % of control: higher = more viable cells. Rule for the call: 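An siRNA counts as active if its total luciferase robust z-score exceeds 3; genes with two or more such siRNAs out of three were retested with fresh siRNAs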. Meaning of the calls: active = raised luciferase; inactive = no rise.
The whole screen tested about 59,000 reagents; shown is a random part of them. About 1,510 of all reagents (2.6%) were called active. 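Calls use total luciferase alone and ignore viability, so some active siRNAs may act by altering cell number.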 Reagents against one gene are numbered here.

target gene,reagent no.,"total luciferase, z-score","total luciferase, % of control","luciferase per cell, z-score","viable cells, % of control",Call
GPC5 (glypican 5),1,0.125,84.4,-0.412,105,inactive
GPC5 (glypican 5),2,1.3,108,0.95,93.7,inactive
GPC5 (glypican 5),3,-0.835,65.3,-0.816,90.4,inactive
RGS12 (regulator of G protein signaling 12),1,0.553,92.9,-0.0368,105,inactive
RGS12 (regulator of G protein signaling 12),2,0.381,89.5,-0.335,109,inactive
RGS12 (regulator of G protein signaling 12),3,0.0793,83.5,-0.357,102,inactive
SET (SET nuclear proto-oncogene),1,1.59,114,2.58,64.4,inactive
SET (SET nuclear proto-oncogene),2,-0.194,78,0.469,77.1,inactive
SET (SET nuclear proto-oncogene),3,-1.06,60.7,-1.08,90.2,inactive
TRIM67 (tripartite motif containing 67),1,-0.242,77.1,-0.548,99.5,inactive
TRIM67 (tripartite motif containing 67),2,-0.54,71.1,-0.538,91.6,inactive
TRIM67 (tripartite motif containing 67),3,-1.46,52.8,-0.71,71.1,inactive
LOC401123 (retired record),1,1.71,116,1.29,92.2,inactive
LOC401123 (retired record),2,-0.298,76,0.956,66,inactive
LOC401123 (retired record),3,0.627,94.4,-0.414,118,inactive
KCNV1,1,-1.55,51.1,-1.47,84.2,inactive
KCNV1,2,-0.427,73.4,-0.389,90.9,inactive
KCNV1,3,0.195,85.8,0.0395,94.9,inactive
CHSY3 (chondroitin sulfate synthase 3),1,0.396,89.8,-0.0767,102,inactive
CHSY3 (chondroitin sulfate synthase 3),2,-0.0614,80.7,-0.48,102,inactive
CHSY3 (chondroitin sulfate synthase 3),3,3.05,143,2.49,82.8,active
DERL2 (derlin 2),1,0.953,101,0.445,100,inactive
DERL2 (derlin 2),2,-0.419,73.5,-0.332,89.7,inactive
DERL2 (derlin 2),3,-2.35,35.1,-1.83,63.6,inactive
